Measured values as given in publication doi:10.1101/2025.11.21.689678 (bioRxiv, 2025).
Residue numbers refer to the chain shown, from its start. Where two headings read alike, the source gives them in different places. Results are given in words; binding and its absence hold for the method and conditions named. Binding seen in cells or lysates may run through a third protein. Some binding calls cover weakened binding; strength is not graded here. For part of these data: Tags and fused reporters may be left off the sequences shown. Blank lines part the entries; values can stand above or below the molecule they belong to.

By UniProt entry, the sequences of proteins in these tests, tags left out. Where a name states a change or a piece, a line headed by the entry shows the natural chain unless it says otherwise.
UniProt P43360, whole entry: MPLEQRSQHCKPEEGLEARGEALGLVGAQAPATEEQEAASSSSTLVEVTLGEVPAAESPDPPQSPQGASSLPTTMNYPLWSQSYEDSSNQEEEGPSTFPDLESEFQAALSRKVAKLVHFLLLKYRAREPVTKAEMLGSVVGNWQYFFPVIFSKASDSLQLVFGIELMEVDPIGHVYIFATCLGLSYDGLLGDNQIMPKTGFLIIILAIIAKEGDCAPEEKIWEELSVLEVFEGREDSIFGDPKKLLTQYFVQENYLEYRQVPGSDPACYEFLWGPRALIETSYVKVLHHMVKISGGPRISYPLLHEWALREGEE
UniProt Q13263, whole entry: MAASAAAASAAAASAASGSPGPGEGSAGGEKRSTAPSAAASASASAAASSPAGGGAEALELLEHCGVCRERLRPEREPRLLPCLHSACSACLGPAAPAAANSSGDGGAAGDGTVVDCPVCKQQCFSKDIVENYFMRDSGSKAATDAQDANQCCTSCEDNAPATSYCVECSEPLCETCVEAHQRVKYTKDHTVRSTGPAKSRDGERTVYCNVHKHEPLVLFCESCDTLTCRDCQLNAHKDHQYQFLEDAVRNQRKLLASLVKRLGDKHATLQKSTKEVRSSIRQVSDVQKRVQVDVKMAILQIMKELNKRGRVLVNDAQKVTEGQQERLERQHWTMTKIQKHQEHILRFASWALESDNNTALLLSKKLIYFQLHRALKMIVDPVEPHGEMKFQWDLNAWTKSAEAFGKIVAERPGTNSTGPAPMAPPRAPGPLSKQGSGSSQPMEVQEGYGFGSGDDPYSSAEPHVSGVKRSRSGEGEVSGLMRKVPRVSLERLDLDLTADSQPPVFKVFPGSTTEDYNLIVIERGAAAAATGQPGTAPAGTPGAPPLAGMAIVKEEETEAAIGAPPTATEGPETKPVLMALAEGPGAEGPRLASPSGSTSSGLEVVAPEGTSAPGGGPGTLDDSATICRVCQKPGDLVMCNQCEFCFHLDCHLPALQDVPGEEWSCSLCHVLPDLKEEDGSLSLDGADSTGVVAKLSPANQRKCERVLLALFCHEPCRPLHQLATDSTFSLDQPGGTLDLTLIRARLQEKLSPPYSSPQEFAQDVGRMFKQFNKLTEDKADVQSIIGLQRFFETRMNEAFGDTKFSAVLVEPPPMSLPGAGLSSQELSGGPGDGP

How the values were obtained:
Assay in all cases: co-IP
[1] = molecular target: T1, ALKBH2(H171A/D173A) (human) (UniProt Q6NS38)
T1 sequence: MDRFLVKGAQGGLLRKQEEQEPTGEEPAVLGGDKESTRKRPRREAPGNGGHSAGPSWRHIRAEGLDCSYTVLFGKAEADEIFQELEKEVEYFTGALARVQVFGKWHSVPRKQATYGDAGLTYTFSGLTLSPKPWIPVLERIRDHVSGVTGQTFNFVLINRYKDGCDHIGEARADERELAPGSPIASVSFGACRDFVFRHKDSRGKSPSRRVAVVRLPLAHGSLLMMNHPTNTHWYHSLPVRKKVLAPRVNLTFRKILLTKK

[2] = molecular target: T2, Flag-TRIM24 (UniProt O15164)
T2 sequence: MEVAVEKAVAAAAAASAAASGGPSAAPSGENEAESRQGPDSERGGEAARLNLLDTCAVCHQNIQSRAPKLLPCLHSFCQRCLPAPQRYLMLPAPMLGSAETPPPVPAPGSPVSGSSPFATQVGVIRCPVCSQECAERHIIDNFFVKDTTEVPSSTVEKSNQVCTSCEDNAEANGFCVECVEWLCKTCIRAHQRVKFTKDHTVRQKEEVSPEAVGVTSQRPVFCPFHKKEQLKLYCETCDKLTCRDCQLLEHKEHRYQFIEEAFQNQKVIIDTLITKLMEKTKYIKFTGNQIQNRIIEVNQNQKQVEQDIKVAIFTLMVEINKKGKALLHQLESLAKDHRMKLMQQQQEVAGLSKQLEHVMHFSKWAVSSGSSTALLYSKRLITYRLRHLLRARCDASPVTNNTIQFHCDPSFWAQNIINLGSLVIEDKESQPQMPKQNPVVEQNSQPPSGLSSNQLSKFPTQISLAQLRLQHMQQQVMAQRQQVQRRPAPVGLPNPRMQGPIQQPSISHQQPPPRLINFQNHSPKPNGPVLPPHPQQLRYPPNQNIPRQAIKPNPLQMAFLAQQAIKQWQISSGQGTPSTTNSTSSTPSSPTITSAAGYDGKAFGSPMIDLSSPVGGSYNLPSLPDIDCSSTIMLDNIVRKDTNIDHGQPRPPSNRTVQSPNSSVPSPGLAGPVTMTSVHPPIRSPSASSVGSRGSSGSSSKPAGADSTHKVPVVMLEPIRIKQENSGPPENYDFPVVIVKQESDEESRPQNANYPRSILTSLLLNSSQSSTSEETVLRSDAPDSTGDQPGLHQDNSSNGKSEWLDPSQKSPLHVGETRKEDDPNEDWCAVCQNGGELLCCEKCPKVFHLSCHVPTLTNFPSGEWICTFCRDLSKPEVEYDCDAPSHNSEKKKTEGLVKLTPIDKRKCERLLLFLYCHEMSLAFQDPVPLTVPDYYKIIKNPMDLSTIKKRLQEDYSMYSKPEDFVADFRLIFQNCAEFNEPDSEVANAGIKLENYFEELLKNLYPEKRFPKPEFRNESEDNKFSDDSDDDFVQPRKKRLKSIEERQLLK

[3] = molecular target: T3, Flag-ALKBH2 (HEK293T) (human) (UniProt Q6NS38)
T3 sequence: T1 sequence with A171H, A173D

[4] = molecular target: Flag-MAGEA6 (WT) (human (cDNA from A549 cells)) (UniProt P43360)
[5] = molecular target: T3, Flag-ALKBH2 (HEK293T) (human); remark: listed apart in the source
[6] = molecular target: Flag-MAGEA6 K211R (human (cDNA from A549 cells)) (UniProt P43360)
[7] = molecular target: Flag-TRIM28 (HEK293T) (human) (UniProt Q13263)
[8] = molecular target: T2, Flag-TRIM24; remark: listed apart in the source
[9] = molecular target: Flag-MAGEA6 (WT) (human (cDNA from A549 cells)) (UniProt P43360); remark: listed apart in the source

- binding [1]: binds
- binding [2]: binds
- binding [3]: binds
- binding [4]: binds
- binding [5]: binds
Molecule: endogenous TRIM28 (HEK293T) (from UniProt Q13263 1-835)

- binding [6]: binds
- binding [7]: binds
- binding [8]: no binding
- binding [9]: binds
B1: HA-ALKBH2 (HEK293T) (protein, UniProt Q6NS38 1-261)
chain: T1 sequence with A171H, A173D
